Assay: Amounts of HETE in intact human neutrophil phospholipids, GC/MS
Details: following alkaline hydrolysis (0.1 N potassium hydroxide), three donors, average ± SEM

SMILES: O=C(O)CCC/C=C\C/C=C\C/C=C\C/C=C\CCCCCO [20-HETE, reference compound]
- amount of HETE released from neutrophil phospholipids: 341±69 pg/10^8 cells
